Reference: PMC4291225

Columns and labels:
Assay in all cases: pull-down; GST pull-down in vitro; GST-tagged PAPC constructs as bait, Myc-tagged β-TrCP detected by Western blot; all proteins expressed in Xenopus embryos and purified for the analyses; both purified
[1] = target: Cytoplasmic domain of PAPC tagged with GST (Xenopus laevis)
[2] = target: Cytoplasmic domain of PAPC tagged with GST, non-phosphorylated mutant (Xenopus laevis)
[3] = target: Cytoplasmic domain of PAPC tagged with GST, phosphorylation-mimic mutant (Xenopus laevis)

B1: Myc-tagged β-TrCP (protein, UniProt Q91854 1-518)
chain: MEGFSCSLQPPTASEREDCNRDEPPRKIITEKNTLRQTKLANGTSSMIVPKQRKLSANYEKEKELCVKYFEQWSECDQVEFVEHLISRMCHYQHGHINTYLKPMLQRDFITALPARGLDHIAENILSYLDAKSLCSAELVCKEWYRVTSDGMLWKKLIERMVRTDSLWRGLAERRGWGQYLFKNKPPDGKTPPNSFYRALYPKIIQDIETIESNWRCGRHSLQRIHCRSETSKGVYCLQYDDQKIVSGLRDNTIKIWDKNTLECKRVLMGHTGSVLCLQYDERVIITGSSDSTVRVWDVNTGEMLNTLIHHCEAVLHLRFNNGMMVTCSKDRSIAVWDMASATDITLRRVLVGHRAAVNVVDFDDKYIVSASGDRTIKVWNTSTCEFVRTLNGHKRGIACLQYRDRLVVSGSSDNTIRLWDIECGACLRVLEGHEELVRCIRFDNKRIVSGAYDGKIKVWDLVAALDPRAPAGTLCLRTLVEHSGRVFRLQFDEFQIVSSSHDDTILIWDFLNDPGLA
binding [1]: binds
binding [2]: no binding
binding [3]: binds

No constants are given. Whether binding was seen depends on the method and setting. For part of these data: Binding can be weak; no strength is given. Tags and fused reporters may be left off the sequences shown.
